From patent US20030124602A1
Results are given in words; binding and its absence hold for the method and conditions named. For some assays here: Binding seen in cells or lysates may run through a third protein. Some binding calls cover weakened binding; strength is not graded here.

By UniProt entry, the sequences of proteins in these tests, tags left out. Where a name states a change or a piece, a line headed by the entry shows the natural chain unless it says otherwise.
UniProt P31748: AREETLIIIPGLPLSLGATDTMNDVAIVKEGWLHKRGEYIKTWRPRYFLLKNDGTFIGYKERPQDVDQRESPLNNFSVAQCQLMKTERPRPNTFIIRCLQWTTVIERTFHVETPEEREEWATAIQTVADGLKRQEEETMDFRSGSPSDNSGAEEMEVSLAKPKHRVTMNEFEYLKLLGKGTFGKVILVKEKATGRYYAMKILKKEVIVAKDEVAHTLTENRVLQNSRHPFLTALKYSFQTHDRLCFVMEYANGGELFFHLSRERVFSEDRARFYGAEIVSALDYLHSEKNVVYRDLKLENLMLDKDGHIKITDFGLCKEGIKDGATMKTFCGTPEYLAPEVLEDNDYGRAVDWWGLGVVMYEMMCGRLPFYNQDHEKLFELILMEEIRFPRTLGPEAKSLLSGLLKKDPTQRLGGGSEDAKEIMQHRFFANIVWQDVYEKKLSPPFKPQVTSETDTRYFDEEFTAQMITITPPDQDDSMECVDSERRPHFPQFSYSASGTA
UniProt Q5T1C6: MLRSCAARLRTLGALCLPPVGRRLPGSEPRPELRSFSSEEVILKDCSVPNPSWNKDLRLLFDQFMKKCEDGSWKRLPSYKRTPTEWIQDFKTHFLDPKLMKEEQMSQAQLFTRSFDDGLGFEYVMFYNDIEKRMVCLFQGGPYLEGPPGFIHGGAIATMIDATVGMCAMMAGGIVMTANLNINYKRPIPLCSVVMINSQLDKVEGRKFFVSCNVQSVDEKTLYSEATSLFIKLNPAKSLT

Columns and labels:
[1] = biological target: v-Akt (viral homologue of c-Akt/PKB, AKT8 retrovirus oncogene product) (AKT8 retrovirus) (UniProt P31748); assay: immunoprecipitation from membrane fractions of AKT8 cells
[2] = biological target: GST fusion of the PKB C-terminal regulatory domain (GST-PKBCter, pGST-PKBCter) (human) [GST: P08515]; assay: co-immunoprecipitation from the cytosolic fraction of COS cells
[3] = biological target: GST fusion of the PKB C-terminal regulatory domain (GST-PKBCter, pGST-PKBCter) (human) [GST: P08515]; assay: anti-Flag co-immunoprecipitation from total COS-1 cell extract in high detergent (NP40, 1%) lysis buffer, anti-GST blot
[4] = biological target: GST-CTMPs fusion protein (pGST.CTMPs) (human) (UniProt Q5T1C6); assay: eukaryotic GST pull-down from co-transfected COS-1 cells, low, medium and high stringency; also after pervanadate stimulation
[5] = biological target: GST fusion of the PKB C-terminal regulatory domain (GST-PKBCter, pGST-PKBCter) (human) [GST: P08515]; assay: anti-Flag co-immunoprecipitation from the cytosolic (S100) fraction of COS-1 cells, anti-GST blot

For “FLAG-CTMP (Flag tagged CTMP, form CTMPL or CTMPs not stated) (from UniProt Q5T1C6 1-240)”, the binding [1] was “binds”.
In the case of “Flag epitope tagged CTMPs (F.CTMPs; CTMP starting at the natural ATG of the cDNA) (from UniProt Q5T1C6 1-240)”, the binding [2] was “binds”, the binding [3] was “binds” and the binding [4] was “binds”. For the same substance, the binding [5] was “binds”.
